# Results as given in PubChem BioAssay AID1487 (National Center for Advancing Translational Sciences (NCATS), 2009).
# This is one part of the list. Further columns of the screen follow, without active or inactive calls. Most of these compounds were active or inconclusive in the main read-out, so they are no random draw. The note in brackets gives the kind of curve behind each potency; many fits are weak.
# Experiment: qHTS Assay for Modulators of Lamin A Splicing
# Conditions: HeLa LMNA splicing GFP/RFP minigene ratio, 48 h
# Procedure, shortened: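 S3 HeLa cells stably expressing lamin A-EGFP splicing minigene plus DsRed2, 600 cells/well, 48 h compound exposure at 37C. Laser-scanning cytometry; analysed as GFP (500-530 nm)/RFP (575-640 nm) total intensity ratio; 0.5% DMSO vehicle.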
# [1] = measured here: GFP splicing reporter channel
# [2] = measured here: RFP viability control channel
Compound,AC50 [1],AC50 [2]
COCc1ccc(CN2CCCC(CO)(Cc3ccccc3)C2)o1 (stereo unspecified),"0.0224 µM [rising, full curve, poor fit]","31.6 µM [rising, partial curve]"
COc1cc([N+](=O)[O-])ccc1NC(=O)CSc1n[nH]c(C(C)C)n1,"11.2 µM [falling, partial curve, poor fit]",–
COc1cc2c(cc1OC)C(COc1ccc(F)cc1)N(C(=O)Cc1ccccc1)CC2 (stereo unspecified),–,"15.8 µM [rising, partial curve, poor fit]"
CCN(CC)S(=O)(=O)c1cc(NC(=O)CN2C(=O)NC3(CCCc4ccccc43)C2=O)ccc1C (stereo unspecified),"17.8 µM [rising, partial curve, poor fit]","25.1 µM [rising, partial curve]"
O=C(CSc1nc2cc(Cl)ccc2s1)NC1CCCc2ccccc21 (stereo unspecified),"10 µM [rising, partial curve]","20 µM [rising, partial curve]"
CC(C)[C@H](NC(N)=O)C(=O)NCCc1ccc(Cl)cc1,–,"14.1 µM [falling, single point]"
Cn1cnc([N+](=O)[O-])c1Oc1ccc2ccccc2c1,–,"35.5 µM [falling, single point]"
CC1(C)CC(=O)C(Sc2ccccc2[N+](=O)[O-])=C(O)C1,"0.0224 µM [falling, full curve, poor fit]",–
Cc1ccccc1NC1=NC(=S)N(c2ccccc2)C12CCCCC2,–,"22.4 µM [rising, single point]"
C=C1C(C(=O)Nc2cccc(OC)c2)C1C(=O)Nc1cccc(OC)c1 (stereo unspecified),"1.12 µM [falling, full curve]",–
Cc1ccc(-c2nc(CS(=O)(=O)CC(=O)N3CCCCCC3)c(C)o2)cc1,–,"12.6 µM [rising, partial curve]"
Cc1[nH]c2ccccc2c1C(=O)CSc1ncn[nH]1,–,"35.5 µM [rising, single point]"
CCN1CCCC1CNc1ncnc2c1[nH]c1ccc(Cl)cc12 (stereo unspecified),"22.4 µM [rising, partial curve, poor fit]","22.4 µM [rising, single point]"
O=C(Nc1ccc(NC(=O)C2CCCN2C(=O)OCc2ccccc2)cc1)c1ccco1 (stereo unspecified),"1 µM [rising, full curve, poor fit]",–
COC(=O)c1ccc(-c2noc(CN(Cc3nccn3C)C(C)C)n2)cc1,–,"1.26 µM [falling, full curve, poor fit]"
O=c1oc2ccccc2cc1-c1nc2c(s1)CCCC2,"10 µM [rising, single point]","12.6 µM [rising, partial curve]"
COCCn1c(C)cc(C(=O)CSc2nc3nc(C)cc(C)n3n2)c1C,"3.55 µM [rising, partial curve, poor fit]","5.01 µM [rising, partial curve, poor fit]"
CN(CCC#N)C(=S)Nc1ccc(Oc2ccccc2)cc1,"7.94 µM [rising, partial curve, poor fit]","15.8 µM [rising, partial curve, poor fit]"

# Full records from above. Order of values: AC50 [1]	AC50 [2]
# Cc1ccc(-c2nc(CS(=O)(=O)CC(=O)N3CCCCCC3)c(C)o2)cc1 is entered as –	12.6 µM [rising, partial curve]
# COCc1ccc(CN2CCCC(CO)(Cc3ccccc3)C2)o1 (stereo unspecified) is entered as 0.0224 µM [rising, full curve, poor fit]	31.6 µM [rising, partial curve]

# Following part.

Compound,AC50 [1],AC50 [2]
O=C(Nc1ccc(O)cc1)c1ccc(C(=O)c2ccccc2)o1,–,"10 µM [rising, partial curve]"
COc1ccc(Br)cc1CN(C)CC(=O)Nc1ccccc1Cl,–,"0.562 µM [rising, partial curve]"
COc1ccc(Cl)cc1S(=O)(=O)N1CCN(c2ccc(F)cc2)CC1,–,"6.31 µM [rising, partial curve]"
O=C(O)/C=C/C(=O)N1CCN(S(=O)(=O)c2cccc(C(F)(F)F)c2)CC1,–,"2.51 µM [rising, partial curve]"
COC(=O)c1c(CSc2ccc(Cl)cc2)noc1C(=O)NCc1ccco1,"12.6 µM [rising, single point]","17.8 µM [rising, single point]"
O=C(c1cc(-c2cccs2)on1)N1CCN(C(c2ccccc2)c2ccccc2)CC1,–,"14.1 µM [rising, single point]"
O=C1CCCN1c1ccc(S(=O)(=O)Nc2ccc3c(c2)OCCO3)cc1,–,"2.82 µM [rising, partial curve]"
O=C(Cc1csc(Nc2nc(=S)[nH]c3ccccc23)n1)NCCCN1CCN(c2ccccc2F)CC1,"0.02 µM [falling, full curve, poor fit]",–
Cc1ccc(S(=O)(=O)N(CC(=O)NCCC2=CCCCC2)Cc2ccccc2)cc1,–,"35.5 µM [falling, single point]"
Cc1ccc(-c2cc(C(F)F)n3ncc(C(=O)N4CCN(c5cccc(C)c5C)CC4)c3n2)cc1,"15.8 µM [rising, partial curve]","31.6 µM [rising, single point]"
CC(=O)Nc1ccc(OS(=O)(=O)c2ccc(C)cc2C)cc1,–,"35.5 µM [falling, single point]"
COc1ccc(CCN2CCC(CNC(=O)c3cnn(-c4cccc(Cl)c4)c3C3CCN(C(=O)OC(C)(C)C)CC3)CC2)cc1,"14.1 µM [falling, partial curve]","12.6 µM [falling, partial curve]"
CCc1nnc(NC(=O)c2sc3nc4c(cc3c2N)CCCCC4)s1,–,"12.6 µM [rising, partial curve, poor fit]"
Cc1cc(C[n+]2ccccc2)c2nsnc2c1,–,"35.5 µM [rising, single point]"
O=C(CSc1nc2ccccc2c(=O)n1CCCN1CCOCC1)Nc1ccc2c(c1)OCO2,"35.5 µM [falling, single point]",–
COc1ccccc1NC(=O)C(=O)NCC(c1cccnc1)N1CCc2ccccc2C1 (stereo unspecified),"3.16 µM [falling, partial curve, poor fit]",–
CCc1nn2cc(C(=O)c3ccccc3O)cnc2c1-c1ccc(F)cc1,–,"35.5 µM [rising, single point]"
Cc1cc(C)c(C)c(/C=C(/C#N)C(N)=S)c1C,–,"35.5 µM [falling, single point]"
